These are yes or no findings as the source states them, for the method shown. Some binding calls cover weakened binding; strength is not graded here.
Experiments:
[1] = target: T1, monkey IL-17A (Macaca mulatta) (Macaca mulatta, UniProt F6T3G5 24-155); assay: BLI (OctetRed 96), BCD085 immobilized on AR2G sensors, monkey (Macaca mulatta) IL-17A as analyte, 30 C
human IL-17A [2] = target: T2, human IL-17A (human, UniProt Q16552 20-155, limits assumed); assay: BLI, OctetRed 96, BCD085 immobilized on AR2G sensors, IL-17A 126 nM to 2 nM, 1:1 model
[3] = target: T1, monkey IL-17A (Macaca mulatta); assay: as above
human IL-17A [4] = target: T2, human IL-17A; assay: BLI (OctetRed 96), BCD085 immobilized on AR2G sensors, human IL-17A as analyte, 30 C

Sequences of proteins named here, by UniProt entry; tags and fusion partners are left off. Residues count along the entry.
UniProt F6T3G5, residues 24-155: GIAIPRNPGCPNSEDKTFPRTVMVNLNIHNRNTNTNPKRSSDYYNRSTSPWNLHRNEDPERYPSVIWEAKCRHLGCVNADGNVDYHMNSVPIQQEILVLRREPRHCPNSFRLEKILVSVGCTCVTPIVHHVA
UniProt Q16552, residues 20-155: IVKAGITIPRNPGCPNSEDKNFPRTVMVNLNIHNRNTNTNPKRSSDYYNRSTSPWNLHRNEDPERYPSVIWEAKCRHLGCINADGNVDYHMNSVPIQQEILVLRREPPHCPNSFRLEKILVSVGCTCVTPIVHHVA

Measured: binding

B1: BCD085 monoclonal anti-IL-17A antibody (antibody, V domains shown)
VH: QVQLVQSGGGLVQPGGSLRLSCAADGFTFSNYAMSWVRQAPGKGLEWVSRIEGGIGSSTYAVDSVKDRFTISRDDAKNTLYLQMSSLKTEDTAVYYCAVNYYGMYYWGQGTLVTVSS
VL: QSVLTQPPSVSVAPGKTVTISCTGTSEDVGFGNYVSWYQHLPGTAPKLLIYRVNTRPSGVPDRFSGSQSGNTASLTISGLQAEDEADYYCSSYKAGGTYVFGGGTKLTVLG
notes: Full-length antibody produced in CHO-S cells; also called the candidate; monoclonal anti-IL-17A antibody of the invention
binds: all assays above

Reference: patent publication US20170081401A1 (CLOSED JOINT STOCK COMPANY BIOCAD, published 2017)
